The other results are listed elsewhere or left out. Some salts or complexes appear as unconnected parts, following the source record.

The assay can be described thus: MT1-MMP activation inhibitors, cellular reporter – HT1080 RFP-PRO-GFP cells, GFP/RFP fluorescence, primary screen (AID 651647). The conditions noted are these: GFP/RFP ratio fluorescence, overnight, RFP expression control read, at 20 µM. A digest of the protocol:
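Assay system – RFP-PRO-GFP reporter HT1080 cells · Compound dosing – single dose of 20 µM compound, 1% DMSO final · Incubation – overnight compound exposure at 37 °C · Measure – GFP/RFP fluorescence ratio · Benchmarks – DMSO wells and RFP-L50D-GFP cells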
Take `O=[N+]([O-])c1cc([N+](=O)[O-])c(C(F)(F)F)c([N+](=O)[O-])c1O`: the RFP signal change worked out at 4.75%.
Then `Cc1ccccc1NP(C)(=O)Nc1ccccc1C`, with 3.41%; and `CP(=O)(Nc1ccc2c(c1)OCCO2)Oc1ccccc1` (stereo not drawn), with 3%.
To `c1nnnn1CCn1cnnn1` belongs -0.995%.
`CCOP(C)(=S)SCC(=O)NC(C)(CC)C(=O)O` (stereo not drawn): the RFP signal change worked out at 2.48%.
`CC(C)C(=O)NC(Sc1ccccc1)C(Cl)(Cl)Cl` (stereo not drawn): the RFP signal change is -0.567%.
To `O=P(Nc1nccs1)(c1ccccc1)c1ccccc1` belongs 7.49%; to `CP(=O)(Nc1ccc(SC(F)(F)F)cc1)Oc1ccc(F)cc1` (stereo not drawn), -3.5%; to `O=C(OC1CN2CCC1CC2)c1cccc(Cl)c1` (stereo not drawn), 3.73%.
To `Cc1c(C(c2ccc3c(c2)OCO3)c2c(C)n(C)n(-c3ccccc3)c2=O)c(=O)n(-c2ccccc2)n1C.O=[N+]([O-])c1cc([N+](=O)[O-])c(O)c([N+](=O)[O-])c1` belongs 7.68%; to `Nc1ccc([As](=O)(O)c2ccc([N+](=O)[O-])cc2)cc1`, 2.27%.
To `C(Cc1nn[nH]n1)Cc1nn[nH]n1` belongs 1.94%; to `O=[As](O)(c1ccccc1)c1ccc(O)cc1`, 0.528%.
On to `Cc1cc(-c2cccc3ccccc23)c(C)cn1.O=[N+]([O-])c1cc([N+](=O)[O-])c(O)c([N+](=O)[O-])c1`, for which the RFP signal change was -8.44%.
Then `O=[N+]([O-])c1cc([N+](=O)[O-])c(NCC2CCS(=O)(=O)C2)c([N+](=O)[O-])c1` (stereo not drawn), with -9.62%; and `O=[N+]([O-])c1ccc(O)c(/C=N/Nc2ccc([N+](=O)[O-])cc2[N+](=O)[O-])c1`, with -10.9%.
To `CC(=O)NC(SC(=S)N(C)C)C(Cl)(Cl)Cl` (stereo not drawn) belongs 2.14%.
With `O=[N+]([O-])c1ccc(OP2(=O)COCCO2)cc1` (stereo not drawn), the RFP signal change came to 2.08%.
To `O=[N+]([O-])c1ncn(CCn2cnc([N+](=O)[O-])n2)n1` belongs 5.07%; to `COc1ccc(NP(C)(=O)Oc2ccccc2OC)cc1` (stereo not drawn), 1.07%.
Then `CN(C)CCOC(=O)C(O)(c1ccccc1)C1CCCCC1` (stereo not drawn), with 1.74%.
To `O=P(Nc1nc2ccccc2s1)(c1ccccc1)c1ccccc1` belongs 4.24%; to `C[C@H]1OP(=O)(Oc2ccccc2)[C@H](O)[C@H](O)[C@H]1N=[N+]=[N-]` (stereo partly drawn), -0.233%.
For the compound `O=P(Nc1ccccn1)(c1ccc(Br)cc1)c1ccc(Br)cc1`, the RFP signal change was -25.9%.
To `CN(C)C1(CNC(=O)c2ccc(Cl)c(S(N)(=O)=O)c2)CCCCC1` belongs -0.126%; to `COc1ccc(OP(C)(=O)Nc2cccc(Br)c2)cc1` (stereo not drawn), 5.85%; to `COc1ccc(N)c([N+](=O)[O-])c1[N+](=O)[O-]`, -4.11%.
To `Cc1ccccc1OP(=O)(Nc1ccccn1)Oc1ccccc1C` belongs -3.93%; to `CC(NC(=O)COC(=O)C(O)(c1ccccc1)c1ccccc1)c1ccccc1` (stereo not drawn), -2.16%; to `CN(C)C(=O)Oc1noc2ccccc12`, 0.533%.
In the case of `CCCCCOc1ccc(NP(C)(=O)Oc2ccc(Cl)cc2Cl)cc1` (stereo not drawn), the RFP signal change turned out to be 1.89%.
Then `O=c1c2cc([N+](=O)[O-])ccc2[nH]c2c([N+](=O)[O-])cc([N+](=O)[O-])cc12`, with -53.8%; and `O=[N+]([O-])c1cc([N+](=O)[O-])c(OC2CCCCC2O)c([N+](=O)[O-])c1` (stereo not drawn), with -6.82%.
Turning to `CP(=O)(Nc1ccccc1)Oc1ccc(F)cc1` (stereo not drawn), the RFP signal change is -0.854%.
Take `O=C(OC1CN2CCC1CC2)c1ccccc1` (stereo not drawn): the RFP signal change worked out at 0.148%.
For `CCN(CC)CCCOC(=O)C(O)(c1ccccc1)C1CCCCC1` (stereo not drawn), the RFP signal change came out at 0.812%.
To `CCC(=O)N1C2C3N(C(=O)CC)C1C1N(C(=O)CC)C(C(N1C(=O)CC)N3C(=O)CC)N2C(=O)CC` belongs 2.55%; to `Cc1c([N+](=O)[O-])cc([N+](=O)[O-])c(Br)c1[N+](=O)[O-]`, -2.6%; to `COC(=O)c1cc2c(s1)N=C(c1ccccc1)N(C)P2(=O)N1CCOCC1` (stereo not drawn), 8.48%.
For the compound `CC(=O)NC(SC(=S)N(CC(C)C)CC(C)C)C(Cl)(Cl)Cl` (stereo not drawn), the RFP signal change was determined as 3.43%.
To `Cc1ccc(OP(=O)(Nc2ccccn2)Oc2ccc(C)cc2)cc1` belongs -13.2%; to `COc1ccc(OP(C)(=O)Nc2ccc(SC(F)(F)F)cc2)cc1` (stereo not drawn), -6.79%.
As to `O=P1(N(CCCl)CCCl)OCCC2CCCCN21` (stereo not drawn), the RFP signal change turned out to be 3.37%.
Then `CCOC(=O)c1ccc(NP(C)(=O)Oc2ccc(F)cc2)cc1` (stereo not drawn), with 4.51%; and `c1ccc(-c2nn[nH]n2)c(-c2nn[nH]n2)c1`, with 1.47%.
For the compound `Cc1ccc(NP(=O)(Oc2cccc(C)c2)Oc2cccc(C)c2)nc1`, the RFP signal change was 0.275%.
Turning to `CCN(CC)CCCNc1ccccc1[N+](=O)[O-].O=[N+]([O-])c1cc([N+](=O)[O-])c(O)c([N+](=O)[O-])c1`, the RFP signal change came to 5.52%.
Then `CCNC(=S)/N=C(\N)N[N+](=O)[O-]`, with 1.14%; and `O=C(NC1CCS(=O)(=O)C1)NP(=S)(Oc1ccccc1)Oc1ccccc1` (stereo not drawn), with -1.23%.
Then `COc1ccc2c(c1O)-c1c(O)c(OC)cc3c1[C@H](C2)[N+](C)(C)CC3.O=[N+]([O-])c1cc([N+](=O)[O-])c([O-])c([N+](=O)[O-])c1[O-]`, with 8.36%; and `CC(=O)Nc1ccc([As](=O)(O)O)c(O)c1`, with 2.46%.
Then `CC(=O)Nc1ccc(Oc2c([N+](=O)[O-])cc([N+](=O)[O-])cc2[N+](=O)[O-])cc1`, with 3.75%; and `O=C(OCCN1CCN(CCOCc2ccccc2)CC1)C(O)(c1ccccc1)c1ccccc1`, with -1.03%; and `C[C@@H]1C=CCP(=O)(Oc2ccccc2)O1` (stereo partly drawn), with 4.03%.
Consider `C[C@H]1OP(=O)(Oc2ccccc2)C[C@@H]2O[C@@H]21` (stereo partly drawn), for which the RFP signal change amounted to 4.33%.
To `N#C/C(=C\c1ccc(N(CCBr)CCBr)cc1)C(N)=O` belongs 4.89%; to `CC(=O)c1ccc(N2CC2c2ccncc2)cc1` (stereo not drawn), -3.26%.
Then `COC(=O)C1(C)COP(=O)(NCc2ccccc2)OC1` (stereo not drawn), with 5.05%; and `CC(C)(C)C(=O)NC(Sc1ccccc1)C(Cl)(Cl)Cl` (stereo not drawn), with -4.37%.
To `CC(C)c1ccc(OP(C)(=O)Nc2ccc(SC(F)(F)F)cc2)cc1` (stereo not drawn) belongs -3.71%; to `CCc1cc(O)c([N+](=O)[O-])c(C)c1[N+](=O)[O-]`, -0.129%; to `CP(=O)(Nc1ccccc1F)Oc1ccccc1` (stereo not drawn), 8.29%.
Take `O=P1(Nc2nc3ccc(Cl)cc3s2)COc2ccccc2O1` (stereo not drawn): the RFP signal change worked out at 1.32%.
To `O=[N+]([O-])c1cc([N+](=O)[O-])c(Nc2ccc(Cl)cc2)c([N+](=O)[O-])c1` belongs -17%.
Turning to `CCOc1ccc(C2=NCC(CBr)S2)cc1` (stereo not drawn), the RFP signal change is -2.93%.
Then `CCc1ccc(OP(C)(=O)O)cc1`, with -1.88%.
`O=[N+]([O-])C1C(O)C(O)C([N+](=O)[O-])C(O)C1O` (stereo not drawn): the RFP signal change stood at 4.47%.
For the compound `CP(=O)(Nc1ccccn1)Oc1ccccc1` (stereo not drawn), the RFP signal change turned out to be 2.8%.
To `COc1ccccc1OP(C)(=O)Nc1ccc(C)cc1C` (stereo not drawn) belongs 8.4%.
To `Oc1ccccc1CNc1ccccn1` belongs -4.49%; to `O=C(NC(Sc1ccncn1)C(Cl)(Cl)Cl)c1ccccc1` (stereo not drawn), 3.14%.
Then `CC(C)CC(=O)NC(Sc1ccc(Cl)cc1)C(Cl)(Cl)Cl` (stereo not drawn), with -4.21%; and `O=[N+]([O-])c1cc([N+](=O)[O-])c(Nc2ccccn2)c([N+](=O)[O-])c1`, with -6.13%; and `Cc1c(NP(C)(=O)Oc2ccc(C(C)C)cc2)c(=O)n(-c2ccccc2)n1C` (stereo not drawn), with 1.31%.
For `Nc1cc(N)c2nonc2c1[N+](=O)[O-]`, the RFP signal change was found to be 1.75%.
Turning to `Clc1ccc(Cl)c(NC2=NCC(CBr)S2)c1` (stereo not drawn), the RFP signal change was determined as 7.01%.
To `CN(C)CCOC(=O)C(O)(c1ccccc1)C1CCCC1` (stereo not drawn) belongs -1.77%.
Then `CN1CCCC(OC(=O)C(c2ccccc2)c2ccccc2)C1` (stereo not drawn), with -0.00756%; and `COc1ccc(OP(C)(=O)Nc2ccccn2)cc1` (stereo not drawn), with 7.02%; and `COc1ccccc1OP(=O)(Nc1ccc(C)cn1)Oc1ccccc1OC`, with 0.238%.
To `Cc1ccc(OP(=O)(Nc2nccs2)Oc2ccc(C)cc2)cc1` belongs 0.317%; to `COc1ccccc1OP(C)(=O)Nc1ccc(Br)cc1` (stereo not drawn), -1.31%.
For the compound `CN(C(=O)Cc1ccc(Cl)c(Cl)c1)[C@H]1CCCC[C@H]1N1CCCC1`, the RFP signal change is -1.44%.
To `Cc1ccc(N/C(=N/P(=O)(N2CCOCC2)N2CCOCC2)N2CCOCC2)cc1` belongs -4.94%.
To `NC(=O)c1cc([N+](=O)[O-])cc([N+](=O)[O-])c1N` belongs -1.28%; to `Nc1cccc2ccc([As](=O)(O)O)cc12`, 20.5%.
Regarding `CP(=O)(OCCOc1ccccc1)OCCOc1ccccc1`, the RFP signal change is -1.52%.
To `CCCCCCCCCCCCCCCC1C[N+](C)(C)CCOP(C)(=O)O1` (stereo not drawn) belongs -18.6%.
Then `CP(=O)(Nc1ccc(Cl)cc1Cl)Oc1ccccc1` (stereo not drawn), with 5.66%.
With `CCN(N=Nc1nonc1N)c1nonc1N`, the RFP signal change stood at 0.715%.
Then `COc1ccc(OP(C)(=O)Nc2ccccc2Br)cc1` (stereo not drawn), with 1.86%; and `CCOP(=O)(Nc1ccccc1)OCC`, with 0.51%.
As for `Cc1cc(SC(NC(=O)c2ccc(F)cc2)C(Cl)(Cl)Cl)ncn1` (stereo not drawn), the RFP signal change was 2.14%.
Then `Cc1ccc(NP(=O)(Oc2ccccc2F)Oc2ccccc2F)nc1`, with 2.6%.
To `CN(C(=O)Cc1ccc(Cl)c(Cl)c1)[C@H]1CCCC[C@@H]1N1CCCC1` belongs 5.89%; to `COc1ccccc1OP(C)(=O)Nc1ccc(C)c(C)c1` (stereo not drawn), 1.35%; to `O=C1C(O)=C([N+](=O)[O-])C(=O)C(O)=C1[N+](=O)[O-]`, -0.671%.
Regarding `Cc1cc(C)cc(OP(C)(=O)Nc2cccc(C(F)(F)F)c2)c1` (stereo not drawn), the RFP signal change was determined as 5.28%.
Consider `CN(C)P(=O)(N(C)C)n1c(Nc2ccccc2)nnc1-c1ccccc1`, for which the RFP signal change was -6.19%.
For the compound `O=P(Nc1nc2ccc(Cl)cc2s1)(c1ccccc1)c1ccccc1`, the RFP signal change was -4.91%.
To `O=C(O)c1ccccc1[As](=O)(O)O` belongs 1.64%.
To `CC(=O)Nc1ccc([As](=O)(O)O)cc1` belongs 6.94%.
To `CCCC1OP(N)(=O)OCC1CC` (stereo not drawn) belongs 4.95%; to `O=C(O)CNc1ccc([As](=O)(O)O)cc1`, 1.17%; to `O=[N+]([O-])c1cccc(NC2=NCC(CBr)S2)c1` (stereo not drawn), 1.67%.
For the compound `COC(=O)C1(C)COP(=O)(Nc2ccccc2)OC1` (stereo not drawn), the RFP signal change was -0.406%.
For `O=[N+]([O-])c1ncn(CCn2ncnc2[N+](=O)[O-])n1`, the RFP signal change is -6.3%.
Consider `CC(C)(C)C(=O)NC(Sc1ccncn1)C(Cl)(Cl)Cl` (stereo not drawn), for which the RFP signal change was -2.63%.
Then `CP(=O)(OC12CC3CC(CC(C3)C1)C2)OC12CC3CC(CC(C3)C1)C2`, with -6.84%.
To `CCOC(=O)c1ccc(NP(C)(=O)Oc2ccc(Cl)cc2)cc1` (stereo not drawn) belongs -2.63%.
Then `O=C(Nc1cc([As](=O)(O)O)ccc1O)c1ccccc1`, with 1.34%.
Consider `O=P1(N(CCCl)CCCl)OCCCS1` (stereo not drawn), for which the RFP signal change was 1.83%.
Then `c1cc(-c2nn[nH]n2)ccc1-c1nn[nH]n1`, with 5.09%.

These data come from PubChem BioAssay AID651647 (Sanford-Burnham Center for Chemical Genomics, 2012).
